Measured values as given in paper PMC5744401.
For at least one entry, the source does not settle the construct or the ends of the probe. For some assays here: Negatives hold for the conditions tested.

What was measured:
[1] = target: His6-AvaR1 (Streptomyces avermitilis) (UniProt Q82H41); assay: EMSA; details: EMSA: 0.3 nM DIG-labeled probe, pH and temperature as in Zhu et al. 2016 (not given), recombinant protein, protein details: His6, label: 3' DIG, probe letters rebuilt from the primers and the genome
[2] = target: His6-AvaR1 (Streptomyces avermitilis) (UniProt Q82H41); assay: DNase I footprinting; details: recombinant protein; protein details: His6; label: 5' FAM; probe letters rebuilt from the primers and the genome
[3] = target: T1, His6-AvaR2 (Streptomyces avermitilis) (UniProt Q82H44); assay: EMSA; details: 50, 200 nM protein; EMSA: 0.3 nM DIG-labeled probe; pH and temperature as in Zhu et al. 2016 (not given); recombinant protein; protein details: His6; label: 3' DIG; probe letters rebuilt from the primers and the genome
T1 sequence: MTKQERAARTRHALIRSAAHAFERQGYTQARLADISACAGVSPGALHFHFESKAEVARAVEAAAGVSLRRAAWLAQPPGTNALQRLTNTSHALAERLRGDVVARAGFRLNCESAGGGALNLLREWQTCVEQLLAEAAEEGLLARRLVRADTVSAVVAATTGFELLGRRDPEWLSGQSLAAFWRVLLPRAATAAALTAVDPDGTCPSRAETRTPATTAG

Sequence	binding result ([1]; 50, 200 nM protein)	further results
ATGGTCGGGAACCTCCGCAATCCGGGCCGGGCGGCCCAGCTGTCGTGGCGATCTACTCCAGGAAACGTAGACCTTTTTCTGCCACTTGTCCGAGCTATGCAGACACCCCGATCCCCTAAGAAATGAACACCCTTGGGAACGGCACAGCCCAGGGGTGGATAGGGGTATTCGCCGCCGCCGCGCCGTCATTAGCTTTGAAGAGTTGAAGACGTTCAAGACATTGATGCCCGGCCGTCAGCGGATTTCTCGCGCTCCTTTCATTCTTCGACGCTGCATTGCAGCTCTCATCATGTCCGCACGGCCGCCGAGCATTGCCTAGCGGTGAGGACACAG (double strand) [aveA1p]	–	binding result ([1]; 10-100 nM protein): no binding
CCTTGTGGGAGCCGTAGTAGGCGGTGAGACCGCTCACGTCGATTCGCTTGGCCATGTGAATCACTGCTTCTTTCGAGAATTCGGGTCGCTGATTGGCCGCGTCAGCGGCCCGCCACGCGGCAGAGCCGCTCATCGAGTCCGTGGGGCCTTCCAGCGCGCGATGCCGCGCGCCGCCAGGTTGAGGATCATGACGAAGGCGATGAGG (double strand) [pstBp]	no binding	–
CGCCTGTGTGTAGCCCTGCCGTTCGAAGGCGTGGGCGGCGGAGCGGATGAGGGCGTGGCGGGTGCGGGCGGCGCGTTCCTGTTTCGTCACCGGTGACTCCTCGCGGAAGGCGGCTGACCAGAGGGCCCTGCAAGAAACCAGCATAGCGGTTTGTTTGTGGCGCCCGTCACCACTTCGCCGACGCGGTACCCCCGGAGGCCAGGCACCGGTCACTGCCGCCGCCCGCGCTGCCCGCTGCCGCCGCCGAGCCGTACCGCGCGGCTCGGGCGTCGCGCATGCCGTCAGGCCCCCGGCACCTCCCTGAACCGGCCCGCGATATGCAGATCCGCCTCGATCCGCGAGGCCGTCGCGAGCAGTTCCGGCAGGACCTCCTCGACACATTCCTCGGGCGTA (double strand) [avaR2 footprint probe]	–	binding result [2]: binds
GAGTGCGAGATGTTGTTGCCGAAGCCCGGCCCCTTGCCGCAGACGTCGCAGTTGGCAGCCACGGGTCACTCCAAAGACTTCAGATGCACTTACGGTTGATCCCGGCATGCCGGAATCGAGATCGGAGGATCTGAGTGGCGGTGCCAGGGGGAAGGCCCGATCAGATCGGGCAACCGGAGCAGCATACAACGACT (double strand) [rpmBp]	binds	–
TCATGCGTCCAGCCTAGGCCTCCCGGTGGTCGGCCGAATCGCCTCGGGAGGGGGGAGGCGTTGCCGCCGGGCGGGTGGGGGCTGCCCGTGGCGGGGGCTCGCCGGCCGCCTCGCGGCCTGTTTCCCACCGCCCTGCCGGTTTCCCACCGCCCTGCCCGTCCCGTGCCTCTGTCTCGCGCCTGCCCGTCCGGCGGGCGGCGTTCCAGGTCGCCTACGCGGCCCGAACGCCCCTCTCCGCCACCCTGTG (double strand) [folP2p]	binds	–
TGCACATCAAGAAGGGCGATCCGATCCTGGTCTCCTTCGCCGCCGCCGCGGCGGACCCCGAGCCGTACGGGGCGGACGCGGCCGTCTTCGACGTACTGCGGCCCGGCCGCCGCGACGACCTGGCCTTCGGATACGGGGTGCACCGCTGCCTGGGCGCTCCGCTGGCACGCCTGGAGGCGACCACCGCGCTGTCGGCGCTCTTCACGCGCTTCCCGGACCTGACGTCCGTTCAGCCGACGGAAGAGCTCGAGCCCGTACGGTCCTTCATCGTCAACGGGTACGGCTCCCTGCCGGTCGTCCTGCGGCCGCACTGATGCGCGAGAAAACCGCACAAGCGGTTTGTTAAAGTTGCTGGACCCCCATCAGCAACGGAGCGCCCGATGGTCAAGCAGGTCAGACAGGAACGCGCGATCCGCACGCGCAACGCCTTGATCGAGTCC (double strand) [avaR3 footprint probe]	–	binding result [2]: binds
TTCAAGAACTTCCGACGGTTCAACGGCATGTCTCGTACTCCTCGGGAAAGGCCAATGACGCGCGTAGATTCTGGCCCACCAGCCACACCCCCGAACAGCCCCCGCAGGTTGCGATCTGATGACCAGTAGCCACCCCACCGCACCCCCCAGTGACAGAGTGGGACGTATGACCCCCACCGCGGAGGAACCCCGCCCCACAGGCCCCTACGGCACCCCCGAAGCCCCCCGCATCGCCGTCCGCGGCGAAGCCCACCTCGAAGTCGACCCCGAGATCGCCCGCATAGGCATCACCGTCAGC (double strand) [cpdBp]	binds	binding result [3]: no binding
